Primary screen of a compound library

Sequences of proteins named here, by UniProt entry; tags and fusion partners are left off. Residues count along the entry.
UniProt A4I591, 1-473: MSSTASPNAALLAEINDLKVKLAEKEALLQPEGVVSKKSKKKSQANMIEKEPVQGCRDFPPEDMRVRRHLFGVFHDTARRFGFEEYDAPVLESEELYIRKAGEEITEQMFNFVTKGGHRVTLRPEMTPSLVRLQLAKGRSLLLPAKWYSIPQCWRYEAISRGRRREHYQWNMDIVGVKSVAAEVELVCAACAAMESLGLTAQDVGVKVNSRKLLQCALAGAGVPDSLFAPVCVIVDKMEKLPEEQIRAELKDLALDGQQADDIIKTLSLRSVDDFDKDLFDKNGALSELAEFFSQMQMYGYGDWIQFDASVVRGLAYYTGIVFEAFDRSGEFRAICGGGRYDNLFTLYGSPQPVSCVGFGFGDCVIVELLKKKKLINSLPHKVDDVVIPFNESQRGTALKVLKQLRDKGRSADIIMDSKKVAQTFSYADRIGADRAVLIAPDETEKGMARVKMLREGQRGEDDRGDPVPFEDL
UniProt P9WFT3, whole entry: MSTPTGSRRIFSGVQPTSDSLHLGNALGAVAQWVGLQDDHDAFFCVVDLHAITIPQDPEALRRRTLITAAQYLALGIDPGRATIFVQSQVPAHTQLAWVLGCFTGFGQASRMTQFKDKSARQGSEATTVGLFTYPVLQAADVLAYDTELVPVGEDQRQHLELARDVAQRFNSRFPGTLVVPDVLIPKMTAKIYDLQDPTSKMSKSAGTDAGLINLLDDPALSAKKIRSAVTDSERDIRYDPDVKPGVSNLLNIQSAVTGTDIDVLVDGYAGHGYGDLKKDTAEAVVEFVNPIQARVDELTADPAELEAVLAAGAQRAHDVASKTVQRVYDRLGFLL

Results are given as percent effect.
How 0% and 100% were set is not recorded. Most values in the screen are low, and negative values occur.
This is an unselected part of the compounds tested.
A dash means the value is not listed here; it may have been measured.

LiHisRS: 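Enzyme assay of histidyl-tRNA synthetase; the read-out is not stated. Target: Histidine-tRNA ligase, Leishmania infantum (UniProt A4I591). Concentration: 30 µM. Direction is inferred from retests: higher values go with stronger inhibition. The assay is labelled LdHisRS but filed under L. infantum. Of about 69,000 compounds tested this way, about 410 (0.6%) reached 50% or more in at least one test.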
T. brucei: 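Whole-parasite assay of Trypanosoma brucei over 72 hours; the read-out is not stated. Tested at 30 µM. Direction is inferred from retests: higher values go with stronger inhibition. Values scatter widely below zero; nearly all retest evidence comes from the higher of the two concentrations used. About 64,000 compounds were tested under these conditions; 1.5% (about 940) showed 50% or more at least once.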
MtTrpRS: 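Enzyme assay of tryptophanyl-tRNA synthetase; the read-out is not stated. Target: Tryptophan-tRNA ligase, Mycobacterium tuberculosis (UniProt P9WFT3). Concentration: 10 µM. Direction is not recorded; retested compounds ran higher, which suggests that high means inhibition. About 65,000 compounds were tested under these conditions; 0.098% (about 64) showed 50% or more at least once.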

Compound	LiHisRS	T. brucei	MtTrpRS
CCc1ncc(CN2CCN(CCOC)CC2)cn1	9.474	-29	1.565
O=C(NCc1cccc(-n2cncn2)c1)NCC(C1CC1)C1CC1	6.557	-26.33	-6.42
CC(C)c1nnc2n1CCN(C(=O)CN(C)Cc1ccccc1)C2	16.96	11.15	-1.981
O=C1CC2(CCN(Cc3cccs3)C2)CN1c1cccc(F)c1 (centres undefined)	17.11	-26.58	-5.692
Cc1cccnc1CC(C)N(C)C(=O)c1cccs1 (centres undefined)	6.806	-16.88	2.408
COCC(NC(=O)NCc1sc(C)nc1C)c1ccco1 (centres undefined)	12.04	-6.88	11.66
[H][C@@]12CN(Cc3ccccc3)CC[C@]1([H])N(C(C)=O)C[C@H]2c1ccsc1	-	3.298	-
[H][C@]12CN(c3ccccn3)CCN1C[C@H](c1ccccc1)[C@H]2CO	-	-11.21	-
c1cncc(COCC2CN(Cc3ccco3)Cc3ccnn3C2)c1 (centres undefined)	16.98	-36.66	2.85
COc1ccc(C[C@H]2CNCC[C@@H]2OC)cc1	3.846	-	-6.25
CC(C)n1ccnc1CN1CCCN(C(=O)c2cnn(C)c2)CC1	8.333	-6.293	-0.4011
CCNC(=O)C1(Cc2cc(-c3ccccc3)no2)CCCN(C(C)=O)C1 (centres undefined)	-1.429	-19.85	4.722
Cc1cc2c(=O)n3c(nc2s1)CCN(C(=O)c1cn(C)nc1C)CC3	0	-32.55	-
CC(C)CN(Cc1ccsc1)C(=O)CCCn1cncn1	23.08	15.74	-1.024
CCS(=O)(=O)N1CCC(c2nn(CCN(C)C)c3ncccc23)C1 (centres undefined)	0	-8.808	-3.52
CCCC(C)N(C)C(=O)c1nc(S(C)(=O)=O)n2ccccc12 (centres undefined)	15.74	6.182	-7.086
O=C1CC(c2ccncc2)c2c(c(C(=O)O)cn2-c2ccc(F)cc2)N1 (centres undefined)	29.13	47.08	4.422
CC[C@H]1N(Cc2ccc(OC)cc2)CCC[C@]12CCC(=O)N2C	8.257	-18.88	-2.156
O=C1Nc2ccccc2C12CCCN(Cc1ccncc1)C2 (centres undefined)	15.83	-	-3.763
c1cnn(CC2CCCN2Cc2nc(C3CC3)no2)c1 (centres undefined)	12.17	-6.713	-2.337
CC(C)CN1CCC2(CCN(Cc3ccc(F)cc3)CC2)C1=O.O=C(O)C(F)(F)F	-	15.86	-
O=C1OC2(CCN(C(=O)C3NCCc4[nH]cnc43)CC2)c2ccccc21 (centres undefined)	14.75	35.1	2.738
NC(=O)C1CCN(C(=O)c2cc(Br)ccc2-n2cnnn2)CC1	-2.174	-34.43	-5.503
O=C(c1cccnc1)N1CCC2(CCN(C(=O)N3CCCC3)CC2)C1	11.82	-	-
Fc1ccc(C2(NCc3ccccc3)CCOCC2)cc1	-3.03	3.175	-1.009
CCN(CCn1cccn1)C(=O)CN1C(=O)OC[C@@H]1C(C)C	6.838	-16.43	-3.069
Cc1ncsc1CCN(C)C(=O)CN1CCCCCC1=O	20.51	8.557	3.818
Cc1cc(C)c(CNC(=O)NCC(O)c2ccccc2F)c(=O)[nH]1 (centres undefined)	13.16	18.29	-5.245
Cn1cc(NC(=O)CCCc2cccs2)c(=O)n(C)c1=O	19.15	-28.02	-1.967
CCc1nc(CN2CCCC(NCc3cc(C)no3)C2)no1 (centres undefined)	10.67	9.874	-2.424
Cc1nc(C2CCCN2CCOCC2CC2)no1 (centres undefined)	10.84	-61.07	6.121
CCCNCc1cc2c(C)cc(C)cc2n2c(=O)n(C)nc12	16.67	24.54	2.09
Cc1ccc2oc(C(=O)N3CCCC(n4ccnc4C)C3)cc2n1 (centres undefined)	-0.9259	7.619	-3.342
NC(=O)C1CCN(C(=O)NC2CCN(CC3CCCC3)C2)CC1 (centres undefined)	14.61	2.832	0.7282
Cc1nc(C2(O)CCCNCC2)sc1CCOc1ccc(F)cc1.Cl (centres undefined)	-	73.77	-
COCCNC(=O)c1nc2c(s1)CCCN2c1ccc(C)nn1	18.92	-16.47	3.127
c1ccc(CN2CCOC3(CCCN(c4nccs4)C3)C2)cc1 (centres undefined)	22.86	-0.6391	2.604
CCn1ccnc1CN(C)Cc1nc(Cc2ccccc2F)no1	1.316	-47.97	3.748
C=Cc1cccc(CN(Cc2cnn(C)c2)C2CC2)c1	13.25	-40.65	-6.526
CN1CCN(CCCN(C)S(=O)(=O)C2CCCCC2)CC1	13.68	-11.22	-7.923

Some entries from above, unchanged:

| Compound | LiHisRS | T. brucei | MtTrpRS |
|---|---|---|---|
| `CCNC(=O)C1(Cc2cc(-c3ccccc3)no2)CCCN(C(C)=O)C1` (centres undefined) | -1.429 | -19.85 | 4.722 |
| `COc1ccc(C[C@H]2CNCC[C@@H]2OC)cc1` | 3.846 | - | -6.25 |
| `CCc1ncc(CN2CCN(CCOC)CC2)cn1` | 9.474 | -29 | 1.565 |

Source: ChEMBL document CHEMBL3988442, “University of Dundee, Small-Polar-MMV Screening Library” (2021).